In all, about 52,000 sequences went through this assay and about 210 (0.4%) were called active.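 How the source made its calls: active means gene whose silencing raises cell survival under the drug, median off-target-corrected z-score across its silencing RNAs 2 or more; inactive means the rest.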 The list shows a part of the results.

The assay can be described thus: Resistance to Poly (ADP-Ribose) Polymerase inhibitor: Gene Identification via Genome-wide siRNA Screen. As to conditions: mouse BRCA2 R2336H ES cells, olaparib, CellTiter-Glo viability; stronger effect = higher value. Put shortly:
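Mouse BRCA2 R2336H ES cells were reverse-transfected with siRNA (20 nM final), treated at 48 h with 500 nM olaparib, and read by CellTiter-Glo after 72 h. Scores: MAD-based z per siRNA, median per gene, seed off-target correction.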
Take “GGAAGUUUUAGUCCCUCUUTT against 4632415L05Rik”: the z-score was inactive: 0.0229.

For “CGUCUCUAUAUACAUACAATT against 9930038B18Rik”, the z-score was inactive: -1.29.

As for CGUAUUAACGACAUAAGAGTT against Nckap1, the z-score was inactive: 0.301.

Regarding GGACCUGUUCAUUUUUGUCTT against Pdgfrb, the z-score is inactive: 0.436.

As for GAUCUUUCGACACAUCACCTT against MGC25972, the z-score is inactive: -0.415.

In the case of “GGACAAAACAUGGAAAAGCTT against 4930486L24Rik”, the z-score is inactive: -0.096.

As for GGUUCUUGUGGAUCUUACCTT against Olfr1424, the z-score is inactive: 0.133.

Take “GGCACUACUAUCAAGACAGTT against 4933436I01Rik”: the z-score is inactive: -0.409.

For the sequence “GGUGAAUGCAGAGCUUUCATT against 2010301N04Rik”, the z-score is inactive: -0.961.

With “GGGUAAUUUUUCACAACAGTT against 1110051M20Rik”, the z-score was inactive: 0.337.

In the case of GGAAGCAGAUGACUGGGAATT against H2-T10, the z-score is inactive: -0.0996.

In the case of GCUGUAUCUUGUGAACAGCTT against Rad9b, the z-score was inactive: 0.379.

Consider “GGAUGUGAUCAUAGCAUGGTT against 6030458H05”, for which the z-score was inactive: -0.0195.

Consider GGAGUUUAUGAAAUUCAACTT against Fcgrt, for which the z-score is inactive: -0.154.

Take CCUACUCACAGUAAUUAAGTT against Trpm8: the z-score was inactive: 0.0647.

Turning to “GGUAUUCCUCCCUGAGCAUTT against 6430604K15Rik”, the z-score was inactive: 1.28.

In the case of GUGUAUCUUAUGCAAUGAUTT against Olfr582, the z-score is inactive: -1.63.

Take “CCCUGAUAGUUGCUUGUACTT against E330021D16Rik”: the z-score is inactive: -0.969.

Turning to GGCAGAGAGCAGAGACAUCTT against BC005662, the z-score was inactive: -1.6.

For the sequence CCAGACGCGUAACUGCUACTT against Cox6b2, the z-score is inactive: 0.404.

As for “GGUGGAAAACAACACCUUATT against A530046H20Rik”, the z-score is inactive: -0.0142.

Regarding “GCUAUGAGACAAGGCUUUCTT against E430029F06”, the z-score is inactive: 0.0993.

For the sequence “CCGAUCAAUGGAUUGUUUUTT against 0610012D09Rik”, the z-score was inactive: 0.387.

Regarding GCGAAUCUUGCUUCUGACCTT against Hist1h4h, the z-score is inactive: -0.696.

Consider GGAAUUUUCUCGAUUUCACTT against Pde6b, for which the z-score was inactive: 0.862.

As to GGUCACUAUACCUGGUAGATT against Aire, the z-score was inactive: -1.12.

Take GGCACCAGCUCAUUAUCAATT against Ppyr1: the z-score was inactive: 2.79.

Regarding GCAUCAUUAAGUGCUACCGTT against Pcdhac2, the z-score is inactive: 1.86.

“GGAAUCUGCUUGAAUAUGGTT against 1810020E01Rik”: the z-score was inactive: 1.39.

On to GCCCAAGCUUUUAUCAAGATT against Frmd4b, for which the z-score is inactive: 0.225.

For the sequence “GCAGCGGUGAACAAUAUAATT against 1700123K08Rik”, the z-score is inactive: -1.41.

Take “GGUUAGAAGGAACUGGGCATT against 3110062M04Rik”: the z-score was inactive: -0.369.

For “GGAUGCUGGACCAAAAUUGTT against A630085K21”, the z-score was inactive: 1.15.

As to “GGACCUUUCCGAGUCCAUUTT against 1110014C03Rik”, the z-score is inactive: 0.482.

Consider GGCUUUAAGAUCGAUACUATT against Hrpt2, for which the z-score is inactive: -2.22.

Turning to GCCUCUGUCAAGUCUUGGATT against Ftl1, the z-score was inactive: -3.01.

As for GGUAAGAGAGGUUUUUUCCTT against Synpo2l, the z-score is inactive: 0.173.

For the sequence GGGAGAGUCAAACAGAGCATT against Dio1, the z-score is inactive: 1.4.

Turning to “GGACCAUAAAACAGUCUGATT against 2310067E08Rik”, the z-score is inactive: -0.852.

For “GCUAUUGAAACUUAUGAGUTT against 2610019N13Rik”, the z-score was inactive: -1.91.

With “GGGCUAGUUUCUUUUUUUGTT against 9530066K23Rik”, the z-score was inactive: -0.112.

In the case of “GCUCUAAGGGCUGUUGCUATT against 0610037P05Rik”, the z-score was inactive: 0.219.

As to CCUAGAAGCUAAUUACCAATT against Saa4, the z-score is inactive: -0.95.

With CCUGUCUAAGCCCUUGGUATT against Mpst, the z-score was inactive: -0.251.

In the case of GCUUCUUAAAGAUGCCGUCTT against Lgi4, the z-score is inactive: -0.649.

For GAGGUUUGGCAGAAGUGCATT against Npff, the z-score is inactive: -0.727.

Consider GCUAAAGAUGAGCGUACAUTT against Myh10, for which the z-score is inactive: 1.79.

Take GCCCACGUUUUAAGUCUACTT against Ap1s3: the z-score was inactive: -1.51.

Turning to GUCUCUUCUAAGCUCCAUCTT against Olfr486, the z-score is inactive: 0.655.

Regarding GGCUGCACAAAACGAGAUCTT against Tcirg1, the z-score was inactive: 0.586.

As for GCUCGUUGCAUAAAAAGAGTT against Creg2, the z-score is inactive: -0.507.

For the sequence GGAUAGCAUACAGUUGUAATT against Gabpb2, the z-score is inactive: -0.847.

GCCAGUACUUAGGUCUAAGTT against Mrps25: the z-score was inactive: -0.738.

On to GGAGUCUGAAGAUGACAUGTT against Rplp1, for which the z-score was inactive: -2.14.

Consider GCAUAAUAGUAAAUGCCAUTT against Smyd1, for which the z-score is inactive: 0.789.

Take GGUUUUACUGUGAUGAACGTT against Pcyt1b: the z-score is inactive: 0.421.

GCAAUCUCUCCUUUUGUGATT against Olfr1128: the z-score is inactive: 0.387.

On to GGGACUUCAACUUAGUUAUTT against Dppa1, for which the z-score is inactive: -0.436.

Consider CCAUUCUACGAGAAUUGUATT against Dncic2, for which the z-score was inactive: 0.385.

As for GGAGGGUGUGUGCUAAUGATT against Tcf2, the z-score is inactive: -0.234.

Turning to GCUAAGUCGGAGCAGUUUUTT against BC022687, the z-score was inactive: -1.6.

GCUUGCCAUCGACAACCUGTT against Bnip1: the z-score was inactive: 0.252.

As for GGUGUAAAGAAAACAUUCCTT against Ctcf, the z-score was inactive: 3.4.

In the case of GCGACUGUACAACGAAUUGTT against AI462438, the z-score was inactive: 1.06.

For the sequence CGAAUACCUGAAGUGCAAATT against Art3, the z-score is inactive: 0.703.

As to AUGGAUGCAAGAGCUUGAUTT against BC049812, the z-score was inactive: -0.506.

Regarding “CCCAAUACAAAUCAGUCUATT against 2310042D19Rik”, the z-score is inactive: -0.645.

Turning to GGAAAUAGAGGUUUGUUCATT against G6pc2, the z-score is inactive: -0.62.

As for GGAAUGACAUUGCUACUGUTT against Zdhhc16, the z-score is inactive: -2.16.

With GGAGAUGGAGAAGUAGAUUTT against Abcf2, the z-score was inactive: 0.0903.

Take GUUGAAAGUUAACCAAAACTT against Hist1h2ab: the z-score was inactive: -1.84.

For the sequence “GGAACGAAUUUUAGAUGCATT against 9930104E21Rik”, the z-score is inactive: -1.85.

“GCAUUAGCUUGUUAACAUUTT against D330034A10Rik”: the z-score is inactive: 0.154.

With GCUUCCUUAUUGACAAUGGTT against Rbm19, the z-score is inactive: 1.14.

On to GGUGGUCUCCUACAAUGCCTT against Olfr1451, for which the z-score is inactive: 0.457.

Take GCAUCGUGUGCAAGAUCCUTT against Atp4b: the z-score was inactive: 0.0689.

With GGAAAGAGGAUAUUAAGUUTT against Wdr33, the z-score was inactive: -1.05.

Consider “GGCAGUUAUUUCUAUCUUATT against 1700018F24Rik”, for which the z-score was inactive: -0.000249.

In the case of GGACCUUUCUGAAGUCCAATT against Eraf, the z-score is inactive: -0.363.

Consider GGAGCAAAGAAAUAAAAGGTT against Olfr851, for which the z-score is inactive: 0.224.

As for CGAAAGAUGGUGAGUCGGUTT against Ppp1r10, the z-score was inactive: -1.89.

As to GGCAAUAACAGGAAAUCAATT against Pkp1, the z-score was inactive: 4.47.

Consider “GGAUGAACUAUACCAUGGCTT against 4632425D07Rik”, for which the z-score is inactive: -0.622.

As to GGACUUAUGUUGAAAACAGTT against Mapk8, the z-score is inactive: 0.192.

For the sequence AUGAAUUUCUACUCGCCACTT against MGC91195, the z-score is inactive: 1.82.

GGUUGAACAACUCUCUGCUTT against Hrh2: the z-score is inactive: 0.51.

Consider GAAGGUUCCUCUGUAAAAATT against Defb13, for which the z-score was inactive: -0.806.

Turning to GGAAAACAAACUGCACUUCTT against Sdf4, the z-score was inactive: -0.914.

Consider “CCUAGUGUGUUAAUUGUAATT against C130057E09Rik”, for which the z-score is inactive: 1.17.

With GGUGCAUGCCAUUGAGUUUTT against Trim23, the z-score is inactive: 1.15.

Take GGACCAGGAUGAGAAGAUUTT against Trim42: the z-score was inactive: -0.916.

Consider GGUUAAAGUUAAAUCUGUCTT against C6, for which the z-score was inactive: -0.317.

As for GGACAUCAGUUGUCCUAGCTT against Tmem16f, the z-score was inactive: -0.0974.

As to GCUGUUCCGUAGCCAGAGUTT against Homer3, the z-score was inactive: -0.747.

As to CCUAUGAAUGUGUUAAAGATT against BC010311, the z-score is inactive: -0.307.

Consider GCCCUUGUUAGGUCUUGUCTT against Stard8, for which the z-score is inactive: -0.854.

As for GGAAUCGCUACCCUGACAUTT against Pitx3, the z-score was inactive: 0.356.

On to “GCAGGCCAGAGUAGUCAUGTT against 4930572J05Rik”, for which the z-score is inactive: 0.795.

For the sequence GGAUGAAAAAGUUAAGAAGTT against Lmod1, the z-score is inactive: 0.517.

As for GGCUGUUGUGUUAUUUGUUTT against Tusc2, the z-score was inactive: -0.0342.

For the sequence “GGACACAGAUUAAUCAAGATT against B230118H07Rik”, the z-score was inactive: 1.17.

Regarding “GGGACCUAUGCUGUUUCCUTT against E030025D05Rik”, the z-score was inactive: -0.622.

The values are drawn from PubChem BioAssay AID1347423 (Functional Genomics Laboratory (NCATS/FGL), 2020).
